PubChem BioAssay AID504764 – Drosophila RNAi Screening Center, 2011
In all, the deposit lists about 22,000 reagents; below is a random part of those with a known target gene and a result. In the full data, 403 (1.9%) were called active. 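Unnormalised raw counts per well; ratio z-scores behind the hit calls and whether each hit raises or lowers signal are not deposited.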 Reagents against one gene are numbered here. The record does not give: the amount of reagent.

Screen: 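Genes whose knock-down alters Notch-dependent transcription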 (primary screen)
Cell system: Drosophila Kc167 cells
Reagent: long dsRNA against Drosophila genes
Time to read-out: about 5 days (4 days dsRNA, then 24 h after transfection)
Challenge: transfection of constitutively active membrane-tethered Notch lacking the extracellular domain, read 24 h later
Detection: 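Firefly luciferase from an E(spl)m3 reporter with active Notch, plus control-promoter and uninduced reporter wells for normalisation; unnormalised counts, duplicate wells a and b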
Reading the numbers: induced reporter light, run 1, well a and induced reporter light, run 1, well b: higher = more light from the Notch target reporter with active Notch; control promoter light, run 1, well a and control promoter light, run 1, well b: higher = more light from the viral control promoter (cell number, transfection, viability); uninduced reporter light, run 1, well a: higher = more light from the Notch target reporter without active Notch
Call rule: 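Wells with low control signal or poorly matching duplicates excluded; duplicates averaged; per source plate, z beyond ±2 for induced/control log2 ratio or beyond ±1.8 for induced/uninduced marks a hit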
Meaning of the calls: active = modifier hit (raised or lowered Notch signal); inactive = not a hit

predicted target | reagent no. | induced reporter light, run 1, well a | induced reporter light, run 1, well b | control promoter light, run 1, well a | control promoter light, run 1, well b | uninduced reporter light, run 1, well a | call
Parp16 | 1 | 1.52e5 | 81485 | 1.24e5 | 1.11e5 | 11955 | inactive
Fs(2)Ket | 1 | 1.29e5 | 1.31e5 | 1.57e5 | 1.69e5 | 9435 | inactive
mRpL38 | 1 | 81930 | 73315 | 91160 | 95405 | 12005 | inactive
CG15024 | 1 | 2.11e5 | 1.60e5 | 2.46e5 | 2.13e5 | 7920 | inactive
CG32204 | 1 | 2.07e5 | 1.65e5 | 2.85e5 | 2.42e5 | 17390 | inactive
CG14881 | 1 | 2.68e5 | 2.36e5 | 2.51e5 | 2.57e5 | 18355 | inactive
Sym | 1 | 50260 | 52720 | 27180 | 24335 | 3485 | inactive
CG31606 | 1 | 1.59e5 | 1.50e5 | 1.71e5 | 1.35e5 | 10600 | inactive
CG13116 | 1 | 1.67e5 | 1.78e5 | 85650 | 1.12e5 | 22060 | inactive
CG13116 | 2 | – | – | – | – | – | inactive
alien | 1 | 1.49e5 | 1.29e5 | 78045 | 85530 | 20460 | active
CG8891 | 1 | 1.87e5 | 1.46e5 | 1.88e5 | 1.69e5 | 9660 | inactive
CG32462 | 1 | 1.06e5 | 1.05e5 | 69370 | 69940 | 8728 | inactive
Desat2 | 1 | 81840 | 76615 | 82305 | 56650 | 5885 | inactive

Copied from the list:
CG31606, uninduced reporter light, run 1, well a = 10600
Result of CG32204 under “control promoter light, run 1, well a”: 2.85e5

Continued:
predicted target | reagent no. | induced reporter light, run 1, well a | induced reporter light, run 1, well b | control promoter light, run 1, well a | control promoter light, run 1, well b | uninduced reporter light, run 1, well a | call
CG13992 | 1 | 1.54e5 | 1.63e5 | 1.59e5 | 1.87e5 | 8925 | inactive
CG7149 | 1 | 1.62e5 | 1.60e5 | 1.58e5 | 1.60e5 | 14735 | inactive
CG9265 | 1 | 38330 | 29310 | 34575 | 33150 | 2735 | inactive
CG9265 | 2 | 61310 | 36240 | 38015 | 67145 | 2380 | inactive
nopo | 1 | 97970 | 99400 | 1.82e5 | 2.25e5 | 6715 | inactive
Slob | 1 | 1.20e5 | 1.40e5 | 1.74e5 | 2.10e5 | 12255 | inactive
Arp2 | 1 | 30965 | 30915 | 25560 | 29665 | 2250 | inactive
Cubn | 1 | 2.13e5 | 1.68e5 | 2.36e5 | 2.12e5 | 13370 | inactive
LManVI | 1 | 91465 | 1.02e5 | 64445 | 83340 | 16042 | inactive
mRRF2 | 1 | 1.64e5 | 1.88e5 | 1.92e5 | 2.02e5 | 14532 | inactive
Timp | 1 | 1.32e5 | 1.38e5 | 1.19e5 | 93710 | 12260 | inactive
Dh31-R | 1 | 67030 | 51655 | 65335 | 60395 | 7220 | inactive
Dh31-R | 2 | 82700 | 93975 | 1.32e5 | 1.27e5 | 9815 | inactive
fus | 1 | 2.16e5 | 1.96e5 | 2.84e5 | 2.39e5 | 19565 | inactive
fus | 2 | 1.10e5 | 98810 | 2.03e5 | 2.00e5 | 9765 | inactive
Chd64 | 1 | 1.42e5 | 1.48e5 | 88330 | 34790 | 9325 | inactive
CG18418 | 1 | 1.18e5 | 1.12e5 | 69855 | 41915 | 9230 | inactive
bou | 1 | 1.23e5 | 1.38e5 | 2.53e5 | 2.79e5 | 10845 | inactive
CG9101 | 1 | 48910 | 56750 | 78760 | 85860 | 9538 | inactive
Pex1 | 1 | 77050 | 75510 | 62825 | 76390 | 6130 | inactive
